Measurements reported in patent publication US10174312B2 (priority 2014, dated 2019).
Where two headings read alike, the source gives them in different places. Starred links: 1 amine or outer side, 2 acyl side, 3 side chain; linkers in the order of their positions; H or OH if unused. Positions of bridges follow the written chain, without caps; N, C: chain ends. Non-standard residues stand in square brackets, D forms with d. Residues, ends and D or L forms follow the SMILES beside them. Chains are numbered I, II in the order given. Actinocin(9to1) = Cc1c2oc3c(C)ccc(C(=O)[*:1])c3nc-2c(C(=O)[*:2])c(N)c1=O; NMeV = CN[C@H](C(=O)O)C(C)C; Sar = CNCC(=O)O

System: S. cerevisiae heterozygous deletion strain library
Assay: S. cerevisiae chemical-genetic profile compendium compared for ecDT screening

Compound | tentative drug target genes, Conserved (S. cerevisiae, number of genes) | tentative drug target genes, Diverged (S. cerevisiae, number of genes) | tentative drug target genes, No Ortholog (S. cerevisiae, number of genes) | tentative drug target genes, Diverged | tentative drug target genes, No Ortholog
Tunicamycin | 2 | 77 | 48 | – | –
CC(=O)[C@H]1CC[C@H]2[C@@H]3CCC4=CC(=O)CC[C@]4(C)[C@H]3CC[C@]12C [Progesterone] | 1 | 39 | 17 | – | –
COc1cccc2c1C(=O)c1c(O)c3c(c(O)c1C2=O)C[C@@](O)(C(=O)CO)C[C@@H]3O[C@H]1C[C@H](N)[C@H](O)[C@H](C)O1 [Doxorubicin] | 4 | 293 | 143 | – | –
CN(C/C=C/C#CC(C)(C)C)Cc1cccc2ccccc12 [Terbinafine] | 4 | 51 | 23 | – | –
Clc1ccccc1C(c1ccccc1)(c1ccccc1)n1ccnc1 [Clotrimazole] | 11 | 342 | 185 | – | –
CN(Cc1cnc2nc(N)nc(N)c2n1)c1ccc(C(=O)N[C@@H](CCC(=O)O)C(=O)O)cc1 [Methotrexate] | 4 | 1218 | 603 | – | –
O=c1[nH]cc(F)c(=O)[nH]1 [5-Fluorouracil] | 2 | 316 | 143 | – | –
O=C(CCCN1CCC(O)(c2ccc(Cl)cc2)CC1)c1ccc(F)cc1 [Haloperidol] | 6 | – | – | 113 | 46
CC[C@H]1OC(=O)[C@H](C)[C@@H](O[C@H]2C[C@@](C)(OC)[C@@H](O)[C@H](C)O2)[C@H](C)[C@@H](O[C@@H]2O[C@H](C)C[C@H](N(C)C)[C@H]2O)[C@](C)(O)C[C@@H](C)C(=O)[C@H](C)[C@@H](O)[C@]1(C)O [Erythromycin] | 1 | 25 | 16 | – | –
Cc1c2oc3c(C)ccc(C(=O)N[C@@H]4C(=O)N[C@H](C(C)C)C(=O)N5CCC[C@H]5C(=O)N(C)CC(=O)N(C)[C@@H](C(C)C)C(=O)O[C@@H]4C)c3nc-2c(C(=O)N[C@@H]2C(=O)N[C@H](C(C)C)C(=O)N3CCC[C@H]3C(=O)N(C)CC(=O)N(C)[C@@H](C(C)C)C(=O)O[C@@H]2C)c(N)c1=O [Actinomycin D] (I: T[dV]P[Sar][NMeV] / II: T[dV]P[Sar][NMeV]; ester I:1-I:C, II:1-II:C; linker I:N-II:N via Actinocin(9to1)) | 41 | 340 | 196 | – | –
CCCCOc1ccc(C(=O)CCN2CCCCC2)cc1 [Dyclonine] | 10 | 331 | 144 | – | –
